Values from PubChem BioAssay AID686937 (Drosophila RNAi Screening Center, 2013).

Purpose: 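Knock-downs that reduce output of a secreted reporter enzyme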 (primary screen)
System: Drosophila S2 cells expressing secreted horseradish peroxidase
Reagent: long dsRNA against Drosophila genes
Timing: about 5.5 days (5 days dsRNA, then 12 h reporter induction)
Challenge: reporter expression induced after 5 days of dsRNA, read 12 h later; inducer not stated
Read-out: 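Chemiluminescent measurement of peroxidase in the medium 12 h after reporter induction, following 5 days of dsRNA, given as a z-score per plate; higher means more secretion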
Direction: z-score: higher = more reporter secreted into medium
The screen tested about 23,000 reagents; below is a random part of those that have a named target and a result. 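Reduced-secretion tags in replicate 1 do not always agree with the z-scores; no criterion for assigning the tags was given.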 Not stated in the record: the amount of reagent.

Gene	DRSC id	z-score, replicate 1	z-score, replicate 2	z-score, replicate 3	z-score, replicate 4
CG4768 (GeneID 32666)	DRSC19917	0.36	0.63	0.5	-0.07
Gbeta5 (GeneID 31744)	DRSC17754	0.36	0.58		
Pif1 (GeneID 33567)	DRSC00582	-0.27	-0.19		
CG12693 (GeneID 31375)	DRSC17882	0.2	0.26		
CG15282 (GeneID 34853)	DRSC22620	1.08	-0.02		
IscU (GeneID 41059)	DRSC16572	-0.05	-1.16		
Spp (GeneID 33227)	DRSC00328	0.34	0.19		
CG15345 (retired record) (GeneID 50402)	DRSC18030	-0.18	0.35	0.71	0.22
CG15345 (retired record) (GeneID 50402)	DRSC22712	0.14	-0.04		
CG17751 (GeneID 42336)	DRSC15261	0.33	0.42		
CG17751 (GeneID 42336)	DRSC22837	-0.22	0.25		
CG31111 (GeneID 318595)	DRSC14649	-0.34	-1.38		
PGRP-SC1a (GeneID 35859)	DRSC06482	0.2	0.27		
vib (GeneID 42306)	DRSC17094	0.46	0.31		
slx1 (GeneID 40578)	DRSC12290	0.32	0.21		
CG12861 (GeneID 36628)	DRSC06201	0.31	0.26		
CG12861 (GeneID 36628)	DRSC21960	0.02	0.34		
CG42812 (GeneID 50072)	DRSC15368	0.16	0.16		
Trmt112 (GeneID 40343)	DRSC11685	0.29	-0.03		
CG7730 (GeneID 39908)	DRSC10909	0.33	0.3		
CG34232 (GeneID 5740195)	DRSC05332	-0.32	-0.26		
Rpt4R (GeneID 39351)	DRSC10791	-0.06	0.16		
alphaCOP (GeneID 38199)	DRSC08706	0.01	0.05		
emb (GeneID 34167)	DRSC03528	-0.5	-0.56		
PGAP3 (GeneID 35570)	DRSC04989	0.03	0.32		
CG16926 (GeneID 50205)	DRSC06637	0.19	0.28		
CG34384 (GeneID 5740362)	DRSC12642	0.23	0.39	-0.56	0.34
CG34384 (GeneID 5740362)	DRSC12644	0.04	0.18		
CG34384 (GeneID 5740362)	DRSC14855	-0.13	-0.41		
CG34384 (GeneID 5740362)	DRSC15444	0.17	0.22		
CG34384 (GeneID 5740362)	DRSC16575	0.23	0.22		
Pex19 (GeneID 34630)	DRSC02839	0.56	0.45		
ATPsynO (GeneID 41845)	DRSC16780	-0.32	-0.31		

2 entries from above, reduced to “z-score, replicate 1”:
slx1 (GeneID 40578) [DRSC12290] = 0.32
CG12861 (GeneID 36628) [DRSC06201] = 0.31
